Results on one molecule are retold here after paper PMC8582215.

These are yes or no findings as the source states them, for the method shown. In cells and extracts the contact can be indirect. For some assays here: Binding calls can cover weak binding; strength is not graded here. Tags and fused reporters may be left off the sequences shown.

Test [1] concerns the target NYFP (N-terminus of YFP). As to the kind of experiment: split reporter; BiFC: ZjSEP3 in pSPYNE (NYFP) and AtLHY in pSPYCE (CYFP), agro-infiltrated Nicotiana benthamiana leaves, observed 48 h after infiltration.
The target in test [2] is ZjSEP3-NYFP (Ziziphus jujuba). The description is as above.

B1: AtLHY-CYFP (protein, UniProt Q6R0H1 1-645)
chain: MDTNTSGEELLAKARKPYTITKQRERWTEDEHERFLEALRLYGRAWQRIEEHIGTKTAVQIRSHAQKFFTKLEKEAEVKGIPVCQALDIEIPPPRPKRKPNTPYPRKPGNNGTSSSQVSSAKDAKLVSSASSSQLNQAFLDLEKMPFSEKTSTGKENQDENCSGVSTVNKYPLPTKQVSGDIETSKTSTVDNAVQDVPKKNKDKDGNDGTTVHSMQNYPWHFHADIVNGNIAKCPQNHPSGMVSQDFMFHPMREETHGHANLQATTASATTTASHQAFPACHSQDDYRSFLQISSTFSNLIMSTLLQNPAAHAAATFAASVWPYASVGNSGDSSTPMSSSPPSITAIAAATVAAATAWWASHGLLPVCAPAPITCVPFSTVAVPTPAMTEMDTVENTQPFEKQNTALQDQNLASKSPASSSDDSDETGVTKLNADSKTNDDKIEEVVVTAAVHDSNTAQKKNLVDRSSCGSNTPSGSDAETDALDKMEKDKEDVKETDENQPDVIELNNRKIKMRDNNSNNNATTDSWKEVSEEGRIAFQALFARERLPQSFSPPQVAENVNRKQSDTSMPLAPNFKSQDSCAADQEGVVMIGVGTCKSLKTRQTGFKPYKRCSMEVKESQVGNINNQSDEKVCKRLRLEGEAST
B1: the figures for the binding result in test [1] and in test [2] were “no binding” and “binds”, respectively.
